# In the supplement of paper PMC4604168 (melanoma cell lines):
# Some of the results follow. Single values are uncertain, as repeats are few or missing.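 Cells were imaged in 1,536-well plates, and nuclei stained with an antibody against cleaved PARP were counted against all DNA-stained nuclei to give the apoptosis fraction. Screening doses were chosen to leave most cells alive, and resting and induced cleaved-PARP levels differ strongly between cell lines.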
# System: 501Mel
# Test: cleaved PARP positive nuclei fraction relative to DMSO control; melanoma cells; higher = more apoptosis
# Details: library dose: low library concentration; 72 h
row,SMILES,cleaved PARP positive nuclei fraction
1,"OCCn1cc(-c2cnc3nnn(Cc4ccc5ncccc5c4)c3n2)cn1 + Oc1cc(-c2nc(-c3ccccc3)[nH]c2-c2ccncc2)ccc1Cl [L779450] (first compound 1 µM, partner dose 0.2 µM)",124%
2,"CO[C@@H]1[C@H](N(C)C(=O)c2ccccc2)C[C@H]2O[C@]1(C)n1c3ccccc3c3c4c(c5c6ccccc6n2c5c31)C(=O)NC4 [Midostaurin] + O=C(Nc1ccccc1)c1cc([N+](=O)[O-])ccc1Cl [GW9662] (first compound 0.08 µM, partner dose 2 µM)",43.6%
3,"CC1(C)NC(=O)N(c2ccc([N+](=O)[O-])c(C(F)(F)F)c2)C1=O [nilutamide] + COC(=O)c1sccc1S(=O)(=O)Nc1ccc(Nc2ccccc2)cc1OC [GSK0660] (first compound 1 µM, partner dose 1 µM)",142%
4,"Cc1nc(Nc2ncc(C(=O)Nc3c(C)cccc3Cl)s2)cc(N2CCN(CCO)CC2)n1 [dasatanib] + Cc1cc([N+](=O)[O-])ccc1NS(=O)(=O)c1cc(Cl)ccc1Cl [FH535] (first compound 0.004 µM, partner dose 1 µM)",94.4%
5,"C[C@@H]1CCN(C(=O)CC#N)C[C@@H]1N(C)c1ncnc2[nH]ccc12 + O=C(Nc1ccccc1)c1cc([N+](=O)[O-])ccc1Cl [GW9662] (first compound 1 µM, partner dose 2 µM)",122%
6,"C=CCn1c(=O)c2cnc(Nc3ccc(N4CCN(C)CC4)cc3)nc2n1-c1cccc(C(C)(C)O)n1 + O=c1cc(-c2cccc3c2Sc2ccccc2S3)oc(N2CCOCC2)c1 [KU55933] (first compound 0.02 µM, partner dose 1 µM)",139%
7,"Cc1ccc(NC(=O)c2cccc(N(C)C)c2)cc1NC(=O)c1ccc(O)cc1 + N#Cc1c(O)c2c(-c3ccc(-c4ccccc4O)cc3)csc2[nH]c1=O [A769662] (first compound 2 µM, partner dose 2 µM)",107%
8,"Cc1cc(N2CCOCC2)cc2[nH]c(-c3c(NC[C@@H](O)c4cccc(Cl)c4)cc[nH]c3=O)nc12 + O=C(O)C(=O)Nc1sc2c(c1C(=O)O)CCNC2 [TCS401] (first compound 0.2 µM, partner dose 1.66667 µM)",233%
9,"C=CCn1c(=O)c2cnc(Nc3ccc(N4CCN(C)CC4)cc3)nc2n1-c1cccc(C(C)(C)O)n1 + CCN(CC)CCCCNc1ncc2cc(-c3cc(OC)cc(OC)c3)c(NC(=O)NC(C)(C)C)nc2n1 [PD173074] (first compound 0.02 µM, partner dose 0.1 µM)",140%
10,"Cc1cc(N2CCOCC2)cc2[nH]c(-c3c(NC[C@@H](O)c4cccc(Cl)c4)cc[nH]c3=O)nc12 + O=c1cc(-c2cccc3c2Sc2ccccc2S3)oc(N2CCOCC2)c1 [KU55933] (first compound 0.2 µM, partner dose 1 µM)",209%
11,"C#Cc1cccc(Nc2ncnc3cc(OCCOC)c(OCCOC)cc23)c1 [erlotinib] + O=c1cc(-c2cccc3c2Sc2ccccc2S3)oc(N2CCOCC2)c1 [KU55933] (first compound 0.8 µM, partner dose 1 µM)",243%
12,"Cn1c(Nc2ccc(C(F)(F)F)cc2)nc2cc(Oc3ccnc(-c4ncc(C(F)(F)F)[nH]4)c3)ccc21 + O=C1NC(=O)/C(=C/c2ccc(-c3ccc(F)cc3O)o2)S1 [AS252424] (first compound 0.08 µM, partner dose 1 µM)",130%
13,"NC(=O)Nc1cc(-c2cccc(F)c2)sc1C(=O)N[C@H]1CCCNC1 + CCCCCCCCCCCC1=C(O)C(=O)C=C(O)C1=O [Embelin] (first compound 0.02 µM, partner dose 1.2 µM)",72.1%
14,"C=CCn1c(=O)c2cnc(Nc3ccc(N4CCN(C)CC4)cc3)nc2n1-c1cccc(C(C)(C)O)n1 + COc1cc2ncnc(Nc3ccc(Oc4ccccc4)cc3)c2cc1OC [SrcI1] (first compound 0.02 µM, partner dose 2 µM)",147%
15,"Cn1c(Nc2ccc(C(F)(F)F)cc2)nc2cc(Oc3ccnc(-c4ncc(C(F)(F)F)[nH]4)c3)ccc21 + N#Cc1c(O)c2c(-c3ccc(-c4ccccc4O)cc3)csc2[nH]c1=O [A769662] (first compound 0.08 µM, partner dose 2 µM)",70.3%

# As entered above.
# Under cleaved PARP positive nuclei fraction, OCCn1cc(-c2cnc3nnn(Cc4ccc5ncccc5c4)c3n2)cn1 + Oc1cc(-c2nc(-c3ccccc3)[nH]c2-c2ccncc2)ccc1Cl [L779450] (first compound 1 µM, partner dose 0.2 µM) has the entry 124%
# Under cleaved PARP positive nuclei fraction, Cc1ccc(NC(=O)c2cccc(N(C)C)c2)cc1NC(=O)c1ccc(O)cc1 + N#Cc1c(O)c2c(-c3ccc(-c4ccccc4O)cc3)csc2[nH]c1=O [A769662] (first compound 2 µM, partner dose 2 µM) has the entry 107%
